In publication PMC6901541:
Results are given in words; binding and its absence hold for the method and conditions named. Binding seen in cells or lysates may run through a third protein. These calls come from enrichment with a bait or labelling near it, and not all partners need be listed.

Chains of the proteins cited; added tags and fusions are not shown. Lines headed by an entry give the natural chain unless they say otherwise; changes in a name come on top.
UniProt A4I9I9: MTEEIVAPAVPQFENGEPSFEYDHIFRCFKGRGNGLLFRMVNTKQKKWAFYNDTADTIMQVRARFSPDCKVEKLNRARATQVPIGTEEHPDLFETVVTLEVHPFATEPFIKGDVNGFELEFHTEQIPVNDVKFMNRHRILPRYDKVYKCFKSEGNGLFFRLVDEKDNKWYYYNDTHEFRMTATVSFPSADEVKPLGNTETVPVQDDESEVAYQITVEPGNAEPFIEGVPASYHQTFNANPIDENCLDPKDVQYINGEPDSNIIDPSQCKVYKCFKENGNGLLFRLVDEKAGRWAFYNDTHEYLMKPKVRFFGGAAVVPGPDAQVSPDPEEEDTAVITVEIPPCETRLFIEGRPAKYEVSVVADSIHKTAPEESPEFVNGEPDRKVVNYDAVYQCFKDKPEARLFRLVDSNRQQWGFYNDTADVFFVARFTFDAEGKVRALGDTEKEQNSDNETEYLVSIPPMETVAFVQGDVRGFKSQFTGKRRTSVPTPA

Legend:
[1] = biological target: CDPK1-HA (HA-tagged wild-type L. infantum protein kinase CDPK1, LinJ.33.1810) (L. infantum) (UniProt A4I967); experiment: affinity purification with mass spectrometry; lysate of mid-log L. infantum expressing CDPK1-HA on anti-HA magnetic beads (4 °C, 4 h), on-bead trypsin digest, LC-MS/MS; SAINT (AvP > 0.8) against HA-PTR1 and HA-DHFR-TS control immunoprecipitates; three biological replicates
[2] = biological target: CDPK1-HA (HA-tagged wild-type L. infantum protein kinase CDPK1, LinJ.33.1810) (L. infantum) (UniProt A4I967); experiment: affinity purification with mass spectrometry; anti-HA immunoprecipitate of CDPK1-HA after a non-radioactive immunocomplex kinase reaction, run on 12% SDS-PAGE; bands parallel to the radioactive signals cut out and analysed by LC-MS/MS

“ARM56 (LinJ.34.0210), endogenous (from UniProt A4I9I9)” was tested, and the binding [1] was “binds” and the binding [2] was “binds”.
